Data published in patent EP4197526A1, “HYDROGEL FORMULATION COMPRISING ZEBULARINE AND RETIONIC ACID” (Uniwersytet Gdanski, priority 2021, dated 2023).
For at least one compound, name, drawing or mass did not settle the structure.

Experiment: In vitro release from alginate hydrogel in a Franz chamber
Format: physicochemical

**Q.** With `O=c1ncccn1[C@@H]1O[C@H](CO)[C@@H](O)[C@H]1O` [zebularine] as the compound, how does the “release from alginate formulations” value (Franz chamber conditions, in vitro) read?
**A.** Its value is “gradually released”.

**Q.** What about the “level of released zebularine” value (from 2% alginate hydrogel, after 30 min) of the same compound?
**A.** The value was 1×10E11 a.u.

**Q.** What about the “level of released zebularine” value (from 2% alginate hydrogel, after 1 h) of the same compound?
**A.** The value was 2×10E11 a.u.

**Q.** And the “level of released zebularine” value (from 2% alginate hydrogel, after 120 min)?
**A.** The value was 4×10E11 a.u.

**Q.** And the “level of released zebularine, maximum value” (from 2% alginate hydrogel, after 50 h (3000 min))?
**A.** The value was 1x10E12 a.u.
